The list shows a part of the results. Shown are side measurements of this screen, not its main read-out; they come without a call. Compounds called inactive in the main read-out are mostly missing here. The note in brackets gives the kind of curve behind each potency; many fits are weak.
Assay: qHTS Assay for Lipid Storage Modulators in Drosophila S3 Cells;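 as to cell number change: cells counted by Cell Tracker Red CMTPX staining in the red channel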
Settings: BODIPY lipid droplet fluorescence, 18-24 h; for cell number change: measured here: cell count max response, cells fed with added oleic acid
Summary of the method: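 Drosophila S3 cells loaded with oleic acid (400 uM, as added) and compounds at several concentrations; lipid droplets imaged by 488-nm laser-scanning cytometry, 500–530 nm intensity and object ratio to cell channel. Percent activity normalized to 20 uM Triacsin C.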

[1] = measured here: lipid fluorescence (Fed channel) AC50, cells fed with added oleic acid
[2] = measured here: cell number channel AC50, cells fed with added oleic acid

Compound	cell number change [%]	AC50 [1]	AC50 [2]
COc1ccc(-c2nc(N)n(C(=O)c3ccc(C)cc3)n2)cc1	-0.5	20.6 µM [rising, single point]	
COc1ccccc1NC(=O)CCS(=O)(=O)c1cc2c(cc1Cl)NC(=O)CO2	-14.1	16.4 µM [falling, partial curve]	
CC(C)CC(c1nnnn1CC1CCCO1)N1CCN(c2nc3ccccc3s2)CC1 (stereo not given)	0.419	23.1 µM [rising, single point]	
Cc1ccc(C(=O)NCCSc2c(C)[nH]c3ccccc23)cc1[N+](=O)[O-]	0.832		
Cc1ccc(C(=O)OCC(=O)c2c[nH]c3ccccc23)cc1S(=O)(=O)N1CCCCC1	-1.54	2.31 µM [rising, full curve]	
Cc1ccc(NCc2n[nH]c(=S)n2-c2ccccc2)cc1Cl	-30.6	25.9 µM [falling, partial curve]	20.6 µM [falling, partial curve]
CCOCCCNC(=O)NC12CC3CC(CC(C3)C1)C2	-2.92	3.66 µM [falling, partial curve, poor fit]	
COc1cc(C)nc(Oc2ccc(OCc3ccccc3)nn2)n1	275	3.26 µM [rising, partial curve]	23.1 µM [rising, partial curve]
Cc1ccc[n+](-c2nc([O-])sc2/C=N/Nc2ccc([N+](=O)[O-])cc2)c1	6.84	0.82 µM [falling, partial curve, poor fit]	
CC(C)[C@H](NC(=O)C1CCN(S(=O)(=O)c2ccccc2)CC1)C(=O)NCc1ccncc1		6.51 µM [falling, single point]	
Cc1snc(S(=O)(=O)/C(C#N)=N/Nc2cccc(C(F)(F)F)c2)c1C#N	52		18.4 µM [rising, single point]
O=C(NNC(=S)Nc1ccc(Cl)cc1)c1ccccc1OC(F)F	-48.9	25.9 µM [falling, partial curve]	23.1 µM [falling, partial curve]
COc1ccc(NC(=O)CSc2nnc(-c3cccs3)n2Cc2ccco2)cc1OC	-7.85	2.91 µM [rising, full curve, poor fit]	
COc1ccc(CCN2CC(C(=O)NCc3c(C)n[nH]c3C)CCC2=O)cc1 (stereo not given)	-8.38	25.9 µM [falling, single point]	
COCCN(C(=O)c1ccccc1F)c1nnc(-c2ccc(OC)cc2)s1		20.6 µM [falling, partial curve]	
C[C@@H](NC(=O)c1ncn(Cc2ccccc2)c1C(=O)N[C@H](C)c1ccccc1)c1ccccc1	-43.3	29.1 µM [falling, single point]	29.1 µM [falling, single point]
Cc1cc(C(=O)NNC(=O)c2ccccc2F)c2ccccc2n1	26.9	29.1 µM [rising, single point]	
CCOC(=O)C1CCN(c2cc(=O)n(Cc3ccc(F)cc3)c(=O)[nH]2)CC1		4.61 µM [falling, single point]	
Cc1ccccc1/C=N/NC(=O)c1cccnc1	48.9		20.6 µM [rising, partial curve, poor fit]
O=C(CCc1nc2ccccc2c(=O)[nH]1)N1CCN(S(=O)(=O)c2ccccc2Br)CC1	-34.5		13 µM [falling, partial curve, poor fit]
O=C(COC(=O)c1cccc(S(=O)(=O)N2CCN(c3ccccc3)CC2)c1)NCc1ccco1	-8.93		

Compound	cell number change [%]	AC50 [1]	AC50 [2]
CCN(CC)c1nc(N)c2c(N)nc3c(c2c1C#N)CC(c1ccccc1)O3 (stereo not given)	-34.7	2.91 µM [falling, single point]	10.3 µM [falling, partial curve]
COC(=O)Cn1c(C)c(C(C)=O)c(C(C)=O)c1C	8.7	29.1 µM [falling, single point]	
COc1cc2c(c(OC)c1OC)-c1c(cc3c(c1OC)OCO3)C1OC2[C@@H](C)[C@H]1C (stereo not given in full)		29.1 µM [falling, single point]	
CCOc1cnc(C(=O)NNC(=O)C(Br)C(C)C)o1 (stereo not given)	-15.3		
CCOc1ccc(-c2noc(CCC(=O)NCC3CCCO3)n2)cc1OC (stereo not given)	-14.3		
Cc1c(Cl)cccc1S(=O)(=O)Nc1ccnn1C	-1.93	2.91 µM [falling, single point]	
O=C(CSc1nnc(-c2ccco2)n1Cc1ccco1)NCc1ccccc1	39.1		18.4 µM [rising, single point]
O=C(NCC(c1ccco1)N1CCc2ccccc21)c1ccccc1Br (stereo not given)		6.51 µM [rising, partial curve, poor fit]	6.51 µM [rising, single point]
CCOC(=O)c1cnc(-n2nc(C)cc2C)nc1NC1CCCC1	-43.6	29.1 µM [falling, single point]	29.1 µM [falling, single point]
N#Cc1cccc(NCC(=O)Nc2ccc3c(c2)OCCO3)c1	16.2		
Clc1ccc(Oc2cnc3ccccc3n2)cc1	-8.62	29.1 µM [falling, single point]	
COc1cc2c(cc1OC)CN(c1nc(CN3CCOCC3)nc3sc4c(c13)CCCC4)CC2	-1.19	5.8 µM [rising, single point]	
CCN(CC)c1ccc(NC(=O)CN2CCN(c3ccccn3)CC2)cc1	35.1		4.11 µM [rising, partial curve, poor fit]
OCCN1CCN(c2nc(-c3ccccc3)c3cc(Br)ccc3n2)CC1	-15.3	29.1 µM [rising, single point]	0.092 µM [falling, full curve, poor fit]
CCOC(=O)Cn1cc(/C=N/NC(=O)c2cc3ccccc3o2)c2ccccc21	-75.7	7.31 µM [falling, partial curve]	14.6 µM [falling, partial curve]
Cc1cc(NC(=O)CCC(=O)N(Cc2ccco2)C2(C(=O)NC3CCCCC3)CCCC(C)C2)no1 (stereo not given)	-13.5	0.411 µM [falling, full curve, poor fit]	
CC(Cc1cccs1)NC(=O)CCCn1nnnc1CN1CCOCC1 (stereo not given)	0.88		
COc1ccc2nc(SCC(=O)c3ccco3)[nH]c2c1	-10.4	0.58 µM [falling, single point]	
COC(=O)c1ccc(OC(=O)C23CCC(C)(C(=O)O2)C3(C)C)cc1 (stereo not given)	-26.3		
COC(=O)/C=C1/S/C(=N/NC(=O)c2ccccc2C)NC1=O	-14.8		
Cc1ccc(NC(=O)COc2ccc(Br)cn2)cc1	15.2	6.51 µM [falling, single point]	

Compound	cell number change [%]	AC50 [1]	AC50 [2]
CC(=O)Nc1ccc(NC(=O)COC(=O)CCNS(=O)(=O)c2c(Cl)cccc2Cl)cc1	-19.7		
COC(=O)c1ccc(NC(=O)CCCCCn2nnc3ccccc3c2=O)cc1	27		
CCOC(=O)c1c(NC(=O)CSc2cn(CC)c3ccccc23)sc2c1CCC2	37	5.8 µM [rising, full curve, poor fit]	5.8 µM [rising, full curve, poor fit]
CC(C)OCCCNC(=O)CN1CCN(Cc2ccccc2Cl)C1=O	31.2		6.51 µM [rising, full curve, poor fit]
O=C(NC(=S)Nc1c(Cl)ccc2nsnc12)c1ccco1		18.4 µM [rising, single point]	5.8 µM [rising, single point]
Cc1nnc(NC(=O)Nc2cccc(Cl)c2)s1		4.61 µM [rising, single point]	4.11 µM [rising, single point]
Cc1ccc2nc(-c3ccc(NC(=O)CCS(=O)(=O)c4ccccc4)cc3)sc2c1	-6.49	29.1 µM [falling, single point]	
CCCCn1c(-c2cccnc2)nc2cc3[nH]c(=O)c(C(C)C)nc3cc21	-13.9		
Cc1ccc(C(=O)Nc2cccc(-c3cnc4ccccc4n3)c2)cc1	6.07	0.116 µM [rising, full curve, poor fit]	
O=P(C(=NCCO)NO)(N1CCOCC1)N1CCOCC1	12.4	29.1 µM [falling, single point]	
Cc1cc(C)nc(/N=c2/ssnc2Cl)c1	-43.2	32.6 µM [falling, partial curve]	25.9 µM [falling, partial curve]
CCSc1nnc(NC(=O)C2Cc3ccccc3CN2S(=O)(=O)CC)s1 (stereo not given)		6.51 µM [rising, single point]	6.51 µM [rising, single point]
O=C1c2nccnc2C(=O)N1c1ccc(C(F)(F)F)cc1	-37.7		0.184 µM [falling, full curve]
N#CC1=C(N)N(c2ccccc2Sc2ccccc2)C(=O)C1	-5.03		
COc1cccc(CNC(=O)Cn2ccc([N+](=O)[O-])n2)c1	7.77	1.84 µM [rising, partial curve]	
COc1ccccc1-c1noc(CCCC(=O)N2CCOCC2)n1	30.7		13 µM [rising, partial curve, poor fit]
CCc1ccc(C(=O)N/N=C/c2cccc3ccccc23)nc1	1.75	7.31 µM [rising, partial curve, poor fit]	
COc1ccc(Br)cc1CN(C)C(=O)c1cc(Cl)c2c(c1)OCCO2	15.7		
CCC(=O)Nc1nonc1-c1nc2ccccc2n1CCC(C)C	14.9	4.11 µM [rising, partial curve, poor fit]	

Record cards (already shown).
COc1ccccc1-c1noc(CCCC(=O)N2CCOCC2)n1 in the list: cell number change [%]: 30.7; AC50 [2]: 13 µM [rising, partial curve, poor fit]
CCC(=O)Nc1nonc1-c1nc2ccccc2n1CCC(C)C in the list: cell number change [%]: 14.9; AC50 [1]: 4.11 µM [rising, partial curve, poor fit]
Cc1cc(C)nc(/N=c2/ssnc2Cl)c1 in the list: cell number change [%]: -43.2; AC50 [1]: 32.6 µM [falling, partial curve]; AC50 [2]: 25.9 µM [falling, partial curve]
COc1cccc(CNC(=O)Cn2ccc([N+](=O)[O-])n2)c1 in the list: cell number change [%]: 7.77; AC50 [1]: 1.84 µM [rising, partial curve]
